Results as given in patent publication US20240317858A1.
Results are given in words; binding and its absence hold for the method and conditions named. Some entries that bind do so weakly or less than the wild type.

The chains behind the UniProt entries cited, without tags or fusion partners. Residues count along the entry.
UniProt P07766, residues 23-207: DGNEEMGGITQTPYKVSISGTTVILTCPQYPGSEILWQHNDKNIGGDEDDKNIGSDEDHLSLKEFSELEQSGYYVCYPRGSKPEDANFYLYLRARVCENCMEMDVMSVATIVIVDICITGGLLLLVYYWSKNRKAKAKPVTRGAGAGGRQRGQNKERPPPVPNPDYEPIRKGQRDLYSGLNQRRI
UniProt Q95LI5, residues 22-198: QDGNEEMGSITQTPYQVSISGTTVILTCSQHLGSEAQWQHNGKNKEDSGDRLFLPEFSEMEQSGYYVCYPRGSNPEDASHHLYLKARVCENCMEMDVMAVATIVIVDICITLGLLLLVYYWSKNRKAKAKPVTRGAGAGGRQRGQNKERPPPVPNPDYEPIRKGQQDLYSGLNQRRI

Columns and labels:
[1] = target: Human CD3 on CD3+ Jurkat cells (human) (UniProt P07766); assay: flow cytometry, Fab titration
[2] = target: Cynomolgus CD3 on HSC-F cells (cynomolgus) (UniProt Q95LI5); assay: flow cytometry, Fab titration

B1: Antibody No. V013 (ADI-70330) Fab (Fab, V domains shown)
VH: QVQLVQSGAEVKKPGASVKVSCKASGFNIDDYYMHWVRQAPGQRLEWIGWIDLENANTVDDAKFQGRVTITRDTSASTAYMELSSLRSEDTAVYYCARDAYGRYFYDVWGQGTLVTVSS
VL: DIVMSQSPDSLAVSLGERATINCKSSQSLLNARTGKNYLAWYQQKPGQPPKLLIYWASTRSSGVPDRFSGSGSGTDFTLTISSLQAEDVAVYYCVQSYFRRTFGGGTKVEIK
Q: With B1 as the binder, how does the binding [1] read?
A: binds

Q: And the binding [2]?
A: binds
